Test results reported in paper PMC10502012.
These are yes or no findings as the source states them, for the method shown. In cells and extracts the contact can be indirect.

Columns and labels:
Assay in all cases: pull-down; transporter and TASL co-transfected in Expi293F; DDM/CHS lysate on Strep-Tactin beads, eluted with desthiobiotin; western blot with anti-GFP-HRP
[1] = target: T1, full-length human PHT2 (human) (UniProt Q8IY34)
T1 sequence: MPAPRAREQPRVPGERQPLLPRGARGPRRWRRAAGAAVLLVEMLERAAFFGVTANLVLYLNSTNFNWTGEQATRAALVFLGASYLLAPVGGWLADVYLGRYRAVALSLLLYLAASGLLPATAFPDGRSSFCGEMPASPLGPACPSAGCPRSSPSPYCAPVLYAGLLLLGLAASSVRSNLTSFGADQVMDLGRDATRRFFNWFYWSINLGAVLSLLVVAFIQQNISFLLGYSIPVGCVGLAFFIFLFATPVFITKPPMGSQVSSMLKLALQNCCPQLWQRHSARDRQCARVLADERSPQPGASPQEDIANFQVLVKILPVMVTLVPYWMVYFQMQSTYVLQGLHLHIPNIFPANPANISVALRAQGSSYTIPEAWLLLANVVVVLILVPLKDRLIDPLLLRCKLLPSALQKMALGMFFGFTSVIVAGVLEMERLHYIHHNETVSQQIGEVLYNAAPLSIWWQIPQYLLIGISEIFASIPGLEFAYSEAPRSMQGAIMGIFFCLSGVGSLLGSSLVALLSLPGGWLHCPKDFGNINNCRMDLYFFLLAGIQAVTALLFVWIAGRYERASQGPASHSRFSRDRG

[2] = target: T2, full-length human PepT1 (human) (UniProt P46059)
T2 sequence: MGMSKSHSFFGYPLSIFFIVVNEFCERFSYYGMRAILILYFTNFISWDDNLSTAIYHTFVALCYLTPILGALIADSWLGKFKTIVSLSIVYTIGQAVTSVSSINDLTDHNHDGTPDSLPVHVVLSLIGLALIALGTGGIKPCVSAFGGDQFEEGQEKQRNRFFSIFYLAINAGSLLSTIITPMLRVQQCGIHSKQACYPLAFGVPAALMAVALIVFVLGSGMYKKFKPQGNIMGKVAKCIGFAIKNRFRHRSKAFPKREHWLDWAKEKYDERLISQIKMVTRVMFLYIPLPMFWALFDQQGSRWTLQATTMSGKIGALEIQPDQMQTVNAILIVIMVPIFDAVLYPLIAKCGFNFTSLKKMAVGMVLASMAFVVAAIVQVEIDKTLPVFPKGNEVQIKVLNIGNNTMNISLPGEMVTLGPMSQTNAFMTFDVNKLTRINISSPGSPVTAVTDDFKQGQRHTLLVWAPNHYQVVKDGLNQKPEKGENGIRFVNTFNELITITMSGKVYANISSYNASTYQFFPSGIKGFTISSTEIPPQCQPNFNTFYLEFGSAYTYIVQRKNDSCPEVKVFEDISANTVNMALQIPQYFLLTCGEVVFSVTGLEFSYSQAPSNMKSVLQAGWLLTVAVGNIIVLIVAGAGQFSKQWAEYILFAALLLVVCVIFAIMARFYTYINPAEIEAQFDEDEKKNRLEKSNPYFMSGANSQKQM

[3] = target: T3, full-length human PepT2 (human) (UniProt Q16348)
T3 sequence: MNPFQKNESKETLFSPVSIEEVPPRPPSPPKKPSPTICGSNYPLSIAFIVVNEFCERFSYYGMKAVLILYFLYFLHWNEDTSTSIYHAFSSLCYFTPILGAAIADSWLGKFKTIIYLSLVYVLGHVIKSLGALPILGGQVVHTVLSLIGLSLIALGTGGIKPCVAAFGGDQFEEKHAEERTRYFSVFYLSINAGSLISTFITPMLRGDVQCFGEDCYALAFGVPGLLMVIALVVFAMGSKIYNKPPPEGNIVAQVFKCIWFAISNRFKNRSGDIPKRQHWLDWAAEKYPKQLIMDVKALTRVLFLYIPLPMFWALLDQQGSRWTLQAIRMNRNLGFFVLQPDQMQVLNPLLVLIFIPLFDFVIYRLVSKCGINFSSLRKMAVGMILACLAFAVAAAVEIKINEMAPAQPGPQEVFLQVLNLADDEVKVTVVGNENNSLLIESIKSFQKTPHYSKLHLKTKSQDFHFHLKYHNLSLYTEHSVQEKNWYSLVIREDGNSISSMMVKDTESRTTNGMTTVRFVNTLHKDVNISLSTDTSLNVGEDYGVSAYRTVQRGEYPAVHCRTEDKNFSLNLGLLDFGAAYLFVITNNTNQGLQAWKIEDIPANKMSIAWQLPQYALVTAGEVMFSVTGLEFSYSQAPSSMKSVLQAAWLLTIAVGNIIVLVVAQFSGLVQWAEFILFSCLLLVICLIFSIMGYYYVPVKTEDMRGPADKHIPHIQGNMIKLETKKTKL

binding [1]: no binding
binding [2]: no binding
binding [3]: no binding
Substance: full-length chicken TASL, GFP-His-tagged
